Assay results from paper PMC11443917.
Results are given in words; binding and its absence hold for the method and conditions named. In cells and extracts the contact can be indirect. Some binding calls cover weakened binding; strength is not graded here.

Target: T1, Signaling lymphocyte activation molecule family 6 (SLAMF6) (mouse (endogenous in CD4+ T cells from mouse splenocytes)) (UniProt Q9ET39)
T1 sequence: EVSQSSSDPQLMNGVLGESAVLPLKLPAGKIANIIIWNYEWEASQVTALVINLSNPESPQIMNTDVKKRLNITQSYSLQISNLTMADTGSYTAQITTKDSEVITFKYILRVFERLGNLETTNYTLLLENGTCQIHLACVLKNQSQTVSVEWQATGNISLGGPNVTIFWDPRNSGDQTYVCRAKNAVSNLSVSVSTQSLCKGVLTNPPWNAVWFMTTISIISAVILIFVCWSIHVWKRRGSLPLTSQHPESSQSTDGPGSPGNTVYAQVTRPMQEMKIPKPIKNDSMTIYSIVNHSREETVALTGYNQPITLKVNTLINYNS
Experiment: co-IP; total protein of CD4+ T cells in lysis buffer with protease and phosphatase inhibitors; antibody overnight at 4 °C, protein A/G agarose beads 2 h, washed with lysis buffer, western blot

- binding: binds
B1: SH2D1A (SLAM-associated protein) (protein, UniProt O88890 1-126)
chain: MDAVTVYHGKISRETGEKLLLATGLDGSYLLRDSESVPGVYCLCVLYQGYIYTYRVSQTETGSWSAETAPGVHKRFFRKVKNLISAFQKPDQGIVTPLQYPVEKSSGRGPQAPTGRRDSDICLNAP
